This note sets out measurements from the supplement of paper PMC6411743.

The target of this test is T1, UniProt Q9BUA3.
T1 sequence (whole entry): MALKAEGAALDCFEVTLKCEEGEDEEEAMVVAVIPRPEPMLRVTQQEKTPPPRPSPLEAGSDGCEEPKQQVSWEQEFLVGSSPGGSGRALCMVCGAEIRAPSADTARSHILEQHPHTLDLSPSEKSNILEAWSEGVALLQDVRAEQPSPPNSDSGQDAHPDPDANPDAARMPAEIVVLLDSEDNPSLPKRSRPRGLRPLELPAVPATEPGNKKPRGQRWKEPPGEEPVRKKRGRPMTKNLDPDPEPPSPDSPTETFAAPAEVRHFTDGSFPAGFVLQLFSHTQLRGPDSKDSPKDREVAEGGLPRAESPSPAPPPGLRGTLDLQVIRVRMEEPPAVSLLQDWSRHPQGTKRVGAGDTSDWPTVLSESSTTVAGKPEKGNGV
Nature of the test: NP40-soluble protein abundance relative to vehicle (solubility fold change) (ratio); higher = more soluble protein in presence of GTP. As to the method:
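Solubility proteome profiling in Jurkat crude lysate. Lysate was treated with Mg-GTP (0.1-10 mM) for 10 min at room temperature and 3 min at 37 °C, then solubilised with 0.8% NP40 and benzonase, followed by ultracentrifugation. Proteins were quantified by TMT10 LC-MS/MS; the value is the NP40-soluble abundance relative to the NP40-processed vehicle, from 3 independent experiments.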

± gives the standard deviation of the averaged measurements. This is one part of the list.

In the case of `Nc1nc2c(ncn2[C@@H]2O[C@H](COP(=O)(O)OP(=O)(O)OP(=O)(O)O)[C@@H](O)[C@H]2O)c(=O)[nH]1` [guanosine triphosphate], the NP40-soluble protein abundance (concentration: 0.1mM) was found to be 0.958 ± 0.025; the NP40-soluble protein abundance (concentration: 0.5mM) came to 0.971 ± 0.054; the NP40-soluble protein abundance (concentration: 1mM) came out at 1.02 ± 0.11; the NP40-soluble protein abundance (concentration: 2mM) is 0.983 ± 0.091; the NP40-soluble protein abundance (concentration: 4mM) is 0.989 ± 0.1; the NP40-soluble protein abundance (concentration: 6mM) stood at 0.982 ± 0.1. Further, the NP40-soluble protein abundance by setting is: (concentration: 8mM) 1.02 ± 0.096; (concentration: 10mM) 1.03 ± 0.066.
